## Cell number after 72 h of treatment

Values as published with doi:10.1371/journal.pone.0140310, rounded.

Compounds and concentrations:
dasatinib: Cc1nc(Nc2ncc(C(=O)Nc3c(C)cccc3Cl)s2)cc(N2CCN(CCO)CC2)n1 at 0.004 µM
JZL184: O=C(Oc1ccc([N+](=O)[O-])cc1)N1CCC(C(O)(c2ccc3c(c2)OCO3)c2ccc3c(c2)OCO3)CC1 at 1 µM
GW2580: COc1ccc(COc2ccc(Cc3cnc(N)nc3N)cc2OC)cc1 at 1 µM
CP-690550: C[C@@H]1CCN(C(=O)CC#N)C[C@@H]1N(C)c1ncnc2[nH]ccc12 at 1 µM
pioglitazone: CCc1ccc(CCOc2ccc(CC3SC(=O)NC3=O)cc2)nc1 (stereo unspecified) at 2 µM
KU-0063794: COc1ccc(-c2ccc3c(N4CCOCC4)nc(N4C[C@@H](C)O[C@@H](C)C4)nc3n2)cc1CO at 0.02 µM
U73122: COc1ccc2c(c1)CCC1C2CCC2(C)C(NCCCCCCN3C(=O)C=CC3=O)CCC12 (stereo unspecified) at 0.4 µM
veliparib: C[C@]1(c2nc3c(C(N)=O)cccc3[nH]2)CCCN1 at 1.4 µM
tipifarnib: Cn1cncc1[C@@](N)(c1ccc(Cl)cc1)c1ccc2c(c1)c(-c1cccc(Cl)c1)cc(=O)n2C at 0.01 µM
lenalidomide: Nc1cccc2c1CN(C1CCC(=O)NC1=O)C2=O (stereo unspecified) at 1 µM
midostaurin: CO[C@@H]1[C@H](N(C)C(=O)c2ccccc2)C[C@H]2O[C@]1(C)n1c3ccccc3c3c4c(c5c6ccccc6n2c5c31)C(=O)NC4 at 0.08 µM

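Human melanoma cell lines in 1,536-well plates were treated with a pair of drugs for 72 h, then fixed, stained and imaged. The read-out is cell count (nuclei) in % of the DMSO control; lower values mean stronger growth inhibition or killing. Concentrations were fixed for each drug; these are the lower of two levels, a fifth of the higher. These are primary screening values without error estimates.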 Only some of the drugs and lines screened are listed, without regard to their results.

Drugs: dasatinib + U73122
IST-MEL1: 86.9
G-361: 99.1

Drugs: KU-0063794 + lenalidomide
IST-MEL1: 101
G-361: 89.6

Drugs: lenalidomide + tipifarnib
IST-MEL1: 100
G-361: 84.7

Drugs: KU-0063794 + CP-690550
IST-MEL1: 101
G-361: 94.3

Drugs: veliparib + JZL184
IST-MEL1: 105
G-361: 108

Drugs: veliparib + GW2580
IST-MEL1: 101
G-361: 91.3

Drugs: dasatinib + JZL184
IST-MEL1: 93.2
G-361: 94.3

Drugs: CP-690550 + JZL184
IST-MEL1: 94.9
G-361: 102

Drugs: JZL184 + tipifarnib
IST-MEL1: 101
G-361: 101

Drugs: pioglitazone + GW2580
IST-MEL1: 95.4
G-361: 92.6

Drugs: pioglitazone + tipifarnib
IST-MEL1: 94.2
G-361: 92.5

Drugs: veliparib + KU-0063794
IST-MEL1: 103
G-361: 91.1

Drugs: tipifarnib + dasatinib
IST-MEL1: 85.5
G-361: 89.3

Drugs: JZL184 + U73122
IST-MEL1: 101
G-361: 103

Drugs: pioglitazone + U73122
IST-MEL1: 97.7
G-361: 88.4

Drugs: veliparib + dasatinib
IST-MEL1: 82.6
G-361: 87.7

Drugs: tipifarnib + GW2580
IST-MEL1: 90.0
G-361: 88.0

Drugs: lenalidomide + dasatinib
IST-MEL1: 81.2
G-361: 80.8

Drugs: lenalidomide + U73122
IST-MEL1: 105
G-361: 117

Drugs: JZL184 + midostaurin
IST-MEL1: 100
G-361: 107

Drugs: midostaurin + pioglitazone
IST-MEL1: 89.2
G-361: 102

Drugs: GW2580 + dasatinib
IST-MEL1: 90.2
G-361: 89.9

Drugs: CP-690550 + pioglitazone
IST-MEL1: 99.5
G-361: 98.5

Drugs: pioglitazone + KU-0063794
IST-MEL1: 102
G-361: 106

Drugs: tipifarnib + KU-0063794
IST-MEL1: 90.5
G-361: 102

Drugs: lenalidomide + JZL184
IST-MEL1: 107
G-361: 109

3 of the entries, repeated:

| Drugs | IST-MEL1 | G-361 |
|---|---|---|
| lenalidomide + U73122 | 105 | 117 |
| JZL184 + U73122 | 101 | 103 |
| lenalidomide + dasatinib | 81.2 | 80.8 |